Data source: PubChem BioAssay AID1904 (GNF, 2009)
This is not the whole library: the list holds selected reagents. 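Lists only primary-screen hits; phenotype classes come from fitted traces, and the underlying luminescence values are not given.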 The numbers tell different reagents against one gene apart.

Assay: 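Gene silencing that lengthens or shortens period, or boosts amplitude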 (follow-up of hits)
System: human U2OS osteosarcoma cells stably expressing a destabilised luciferase driven by the Bmal1 promoter
Reagent: siRNA pair against human genes, 12.5 nM (two siRNAs, 0.5 pmol each, per well)
Duration: about 3 days after transfection, then luminescence recorded for about 4 days
Detection: 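Bmal1 reporter light output measured every 2 hours over several days, detrended, then fitted to give period and amplitude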
Hit rule: 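Scored active if separate single siRNAs repeated the clock phenotype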
Meaning of the calls: active = confirmed by single siRNAs; inactive = not confirmed

target	reagent no.	clock phenotype class	confirmed with single siRNAs	activity call
DUSP8	1	higher rhythm amplitude; seen with two independent siRNA pairs for the gene	phenotype reproduced by individual siRNAs	active
DUSP8	2	higher rhythm amplitude; seen with two independent siRNA pairs for the gene	phenotype reproduced by individual siRNAs	active
FOXF1	1	shorter clock period; seen with one siRNA pair in duplicate wells	phenotype not reproduced by individual siRNAs	inconclusive
FOXF1	2	shorter clock period; seen with one siRNA pair in duplicate wells	phenotype not reproduced by individual siRNAs	inconclusive
HOMER3	1	longer clock period; seen with two independent siRNA pairs for the gene	phenotype reproduced by individual siRNAs	active
HOMER3	2	longer clock period; seen with two independent siRNA pairs for the gene	phenotype reproduced by individual siRNAs	active
INPP5D	1	higher rhythm amplitude; seen with one siRNA pair in duplicate wells	phenotype not reproduced by individual siRNAs	inconclusive
INPP5D	2	higher rhythm amplitude; seen with one siRNA pair in duplicate wells	phenotype not reproduced by individual siRNAs	inconclusive
GLT25D2	1	shorter clock period; seen with one siRNA pair in duplicate wells	phenotype not reproduced by individual siRNAs	inconclusive
GLT25D2	2	shorter clock period; seen with one siRNA pair in duplicate wells	phenotype not reproduced by individual siRNAs	inconclusive
182-FIP	1	shorter clock period; seen with two independent siRNA pairs for the gene	phenotype reproduced by individual siRNAs	active
182-FIP	2	shorter clock period; seen with two independent siRNA pairs for the gene	phenotype reproduced by individual siRNAs	active
KCNG2	1	longer clock period; seen with two independent siRNA pairs for the gene	phenotype reproduced by individual siRNAs	active
KCNG2	2	longer clock period; seen with two independent siRNA pairs for the gene	phenotype reproduced by individual siRNAs	active
RRBP1	1	shorter clock period; seen with one siRNA pair in duplicate wells	not retested with individual siRNAs	
RRBP1	2	shorter clock period; seen with one siRNA pair in duplicate wells	not retested with individual siRNAs	
SEC13L1	1	longer clock period; seen with two independent siRNA pairs for the gene	phenotype reproduced by individual siRNAs	active
OR1E1	1	longer clock period; seen with two independent siRNA pairs for the gene	phenotype reproduced by individual siRNAs	active
OR1E1	2	longer clock period; seen with two independent siRNA pairs for the gene	phenotype reproduced by individual siRNAs	active
NYX	1	longer clock period; seen with two independent siRNA pairs for the gene	phenotype reproduced by individual siRNAs	active
NYX	2	longer clock period; seen with two independent siRNA pairs for the gene	phenotype reproduced by individual siRNAs	active
SYCP2	1	higher rhythm amplitude; seen with one siRNA pair in duplicate wells	phenotype not reproduced by individual siRNAs	inconclusive
SYCP2	2	higher rhythm amplitude; seen with one siRNA pair in duplicate wells	phenotype not reproduced by individual siRNAs	inconclusive
KPNA4	1	longer clock period; seen with two independent siRNA pairs for the gene	phenotype reproduced by individual siRNAs	active
KPNA4	2	longer clock period; seen with two independent siRNA pairs for the gene	phenotype reproduced by individual siRNAs	active
ARFIP2	1	shorter clock period; seen with one siRNA pair in duplicate wells	phenotype not reproduced by individual siRNAs	inconclusive
ARFIP2	2	shorter clock period; seen with one siRNA pair in duplicate wells	phenotype not reproduced by individual siRNAs	inconclusive
URG4	1	higher rhythm amplitude; seen with one siRNA pair in duplicate wells	phenotype reproduced by individual siRNAs	active
URG4	2	higher rhythm amplitude; seen with one siRNA pair in duplicate wells	phenotype reproduced by individual siRNAs	active
PWP2H	1	longer clock period; seen with two independent siRNA pairs for the gene	phenotype reproduced by individual siRNAs	active
PWP2H	2	longer clock period; seen with two independent siRNA pairs for the gene	phenotype reproduced by individual siRNAs	active
CDC2L1	1	longer clock period; seen with two independent siRNA pairs for the gene	phenotype reproduced by individual siRNAs	active
CDC2L1	2	longer clock period; seen with two independent siRNA pairs for the gene	phenotype reproduced by individual siRNAs	active
CNOT2	1	longer clock period; seen with two independent siRNA pairs for the gene	phenotype reproduced by individual siRNAs	active
CNOT2	2	longer clock period; seen with two independent siRNA pairs for the gene	phenotype reproduced by individual siRNAs	active
COPE	1	shorter clock period; seen with two independent siRNA pairs for the gene	phenotype reproduced by individual siRNAs	active
YT521	1	longer clock period; seen with two independent siRNA pairs for the gene	phenotype reproduced by individual siRNAs	active
YT521	2	longer clock period; seen with two independent siRNA pairs for the gene	phenotype reproduced by individual siRNAs	active
OR2W1	1	higher rhythm amplitude; seen with one siRNA pair in duplicate wells	phenotype reproduced by individual siRNAs	active
OR2W1	2	higher rhythm amplitude; seen with one siRNA pair in duplicate wells	phenotype reproduced by individual siRNAs	active
DKFZp547B1713	1	longer clock period; seen with two independent siRNA pairs for the gene	phenotype reproduced by individual siRNAs	active
DKFZp547B1713	2	longer clock period; seen with two independent siRNA pairs for the gene	phenotype reproduced by individual siRNAs	active
LPHN1	1	longer clock period; seen with two independent siRNA pairs for the gene	phenotype reproduced by individual siRNAs	active
LPHN1	2	longer clock period; seen with two independent siRNA pairs for the gene	phenotype reproduced by individual siRNAs	active
LOC129530	1	shorter clock period; seen with two independent siRNA pairs for the gene	phenotype reproduced by individual siRNAs	active
LOC129530	2	shorter clock period; seen with two independent siRNA pairs for the gene	phenotype reproduced by individual siRNAs	active

Part of the list above, reformatted:
target,reagent no.,clock phenotype class,confirmed with single siRNAs,activity call
PWP2H,2,longer clock period; seen with two independent siRNA pairs for the gene,phenotype reproduced by individual siRNAs,active
CDC2L1,1,longer clock period; seen with two independent siRNA pairs for the gene,phenotype reproduced by individual siRNAs,active
CDC2L1,2,longer clock period; seen with two independent siRNA pairs for the gene,phenotype reproduced by individual siRNAs,active
CNOT2,1,longer clock period; seen with two independent siRNA pairs for the gene,phenotype reproduced by individual siRNAs,active
CNOT2,2,longer clock period; seen with two independent siRNA pairs for the gene,phenotype reproduced by individual siRNAs,active
COPE,1,shorter clock period; seen with two independent siRNA pairs for the gene,phenotype reproduced by individual siRNAs,active
YT521,1,longer clock period; seen with two independent siRNA pairs for the gene,phenotype reproduced by individual siRNAs,active
YT521,2,longer clock period; seen with two independent siRNA pairs for the gene,phenotype reproduced by individual siRNAs,active
OR2W1,1,higher rhythm amplitude; seen with one siRNA pair in duplicate wells,phenotype reproduced by individual siRNAs,active
OR2W1,2,higher rhythm amplitude; seen with one siRNA pair in duplicate wells,phenotype reproduced by individual siRNAs,active

The results go on:
target	reagent no.	clock phenotype class	confirmed with single siRNAs	activity call
CTDP1	1	longer clock period; seen with two independent siRNA pairs for the gene	phenotype reproduced by individual siRNAs	active
CTDP1	2	longer clock period; seen with two independent siRNA pairs for the gene	phenotype reproduced by individual siRNAs	active
RETN	1	longer clock period; seen with two independent siRNA pairs for the gene	phenotype reproduced by individual siRNAs	active
RETN	2	longer clock period; seen with two independent siRNA pairs for the gene	phenotype reproduced by individual siRNAs	active
DGKQ	1	longer clock period; seen with two independent siRNA pairs for the gene	phenotype reproduced by individual siRNAs	active
DGKQ	2	longer clock period; seen with two independent siRNA pairs for the gene	phenotype reproduced by individual siRNAs	active
CSNK1E	1	longer clock period; seen with two independent siRNA pairs for the gene	phenotype reproduced by individual siRNAs	active
CSNK1E	2	longer clock period; seen with two independent siRNA pairs for the gene	phenotype reproduced by individual siRNAs	active
TRRAP	1	higher rhythm amplitude; seen with one siRNA pair in duplicate wells	phenotype reproduced by individual siRNAs	active
TRRAP	2	higher rhythm amplitude; seen with one siRNA pair in duplicate wells	phenotype reproduced by individual siRNAs	active
OPN1MW	1	longer clock period; seen with two independent siRNA pairs for the gene	phenotype reproduced by individual siRNAs	active
OPN1MW	2	longer clock period; seen with two independent siRNA pairs for the gene	phenotype reproduced by individual siRNAs	active
RCV1	1	shorter clock period; seen with two independent siRNA pairs for the gene	phenotype reproduced by individual siRNAs	active
RCV1	2	shorter clock period; seen with two independent siRNA pairs for the gene	phenotype reproduced by individual siRNAs	active
PNRC2	1	longer clock period; seen with two independent siRNA pairs for the gene	phenotype reproduced by individual siRNAs	active
PNRC2	2	longer clock period; seen with two independent siRNA pairs for the gene	phenotype reproduced by individual siRNAs	active
COX7B	1	longer clock period; seen with two independent siRNA pairs for the gene	phenotype reproduced by individual siRNAs	active
COX7B	2	longer clock period; seen with two independent siRNA pairs for the gene	phenotype reproduced by individual siRNAs	active
MPG	1	shorter clock period; seen with one siRNA pair in duplicate wells	phenotype reproduced by individual siRNAs	active
MPG	2	shorter clock period; seen with one siRNA pair in duplicate wells	phenotype reproduced by individual siRNAs	active
CSNK2A1	1	longer clock period; seen with two independent siRNA pairs for the gene	phenotype reproduced by individual siRNAs	active
CSNK2A1	2	longer clock period; seen with two independent siRNA pairs for the gene	phenotype reproduced by individual siRNAs	active
APPBP1	1	longer clock period; seen with two independent siRNA pairs for the gene	phenotype reproduced by individual siRNAs	active
EPAS1	1	longer clock period; seen with two independent siRNA pairs for the gene	phenotype not reproduced by individual siRNAs	inconclusive
EPAS1	2	longer clock period; seen with two independent siRNA pairs for the gene	phenotype not reproduced by individual siRNAs	inconclusive
GPR37L1	1	longer clock period; seen with two independent siRNA pairs for the gene	phenotype reproduced by individual siRNAs	active
GPR37L1	2	longer clock period; seen with two independent siRNA pairs for the gene	phenotype reproduced by individual siRNAs	active
NOLA2	1	longer clock period; seen with two independent siRNA pairs for the gene	phenotype reproduced by individual siRNAs	active
NOLA2	2	longer clock period; seen with two independent siRNA pairs for the gene	phenotype reproduced by individual siRNAs	active
HIF1AN	1	longer clock period; seen with two independent siRNA pairs for the gene	phenotype reproduced by individual siRNAs	active
HIF1AN	2	longer clock period; seen with two independent siRNA pairs for the gene	phenotype reproduced by individual siRNAs	active
PTTG2	1	shorter clock period; seen with one siRNA pair in duplicate wells	phenotype not reproduced by individual siRNAs	inconclusive
PTTG2	2	shorter clock period; seen with one siRNA pair in duplicate wells	phenotype not reproduced by individual siRNAs	inconclusive
FGF19	1	longer clock period; seen with two independent siRNA pairs for the gene	phenotype reproduced by individual siRNAs	active
FGF19	2	longer clock period; seen with two independent siRNA pairs for the gene	phenotype reproduced by individual siRNAs	active
C11ORF4	1	longer clock period; seen with two independent siRNA pairs for the gene	phenotype reproduced by individual siRNAs	active
C11ORF4	2	longer clock period; seen with two independent siRNA pairs for the gene	phenotype reproduced by individual siRNAs	active
GPR78	1	shorter clock period; seen with two independent siRNA pairs for the gene	phenotype reproduced by individual siRNAs	active
GPR78	2	shorter clock period; seen with two independent siRNA pairs for the gene	phenotype reproduced by individual siRNAs	active
ZNF211	1	higher rhythm amplitude; seen with one siRNA pair in duplicate wells	phenotype not reproduced by individual siRNAs	inconclusive
KCNV1	1	higher rhythm amplitude; seen with one siRNA pair in duplicate wells	phenotype not reproduced by individual siRNAs	inconclusive
KCNV1	2	higher rhythm amplitude; seen with one siRNA pair in duplicate wells	phenotype not reproduced by individual siRNAs	inconclusive
SLC34A3	1	longer clock period; seen with two independent siRNA pairs for the gene	phenotype reproduced by individual siRNAs	active
SLC34A3	2	longer clock period; seen with two independent siRNA pairs for the gene	phenotype reproduced by individual siRNAs	active
NAGLU	1	longer clock period; seen with two independent siRNA pairs for the gene	phenotype reproduced by individual siRNAs	active
NAGLU	2	longer clock period; seen with two independent siRNA pairs for the gene	phenotype reproduced by individual siRNAs	active
PAPOLB	1	longer clock period; seen with two independent siRNA pairs for the gene	phenotype reproduced by individual siRNAs	active
PAPOLB	2	longer clock period; seen with two independent siRNA pairs for the gene	phenotype reproduced by individual siRNAs	active
RGPR	1	longer clock period; seen with two independent siRNA pairs for the gene	phenotype reproduced by individual siRNAs	active
RGPR	2	longer clock period; seen with two independent siRNA pairs for the gene	phenotype reproduced by individual siRNAs	active
PPP1R2P9	1	shorter clock period; seen with two independent siRNA pairs for the gene	not retested with individual siRNAs	
PPP1R2P9	2	shorter clock period; seen with two independent siRNA pairs for the gene	not retested with individual siRNAs	
PKP1	1	longer clock period; seen with two independent siRNA pairs for the gene	phenotype reproduced by individual siRNAs	active
PKP1	2	longer clock period; seen with two independent siRNA pairs for the gene	phenotype reproduced by individual siRNAs	active
HNRPR	1	shorter clock period; seen with two independent siRNA pairs for the gene	phenotype reproduced by individual siRNAs	active
HNRPR	2	shorter clock period; seen with two independent siRNA pairs for the gene	phenotype reproduced by individual siRNAs	active
KIAA0690	1	longer clock period; seen with two independent siRNA pairs for the gene	phenotype reproduced by individual siRNAs	active
KIAA0690	2	longer clock period; seen with two independent siRNA pairs for the gene	phenotype reproduced by individual siRNAs	active
FBXL3	1	longer clock period; seen with two independent siRNA pairs for the gene	phenotype reproduced by individual siRNAs	active
FBXL3	2	longer clock period; seen with two independent siRNA pairs for the gene	phenotype reproduced by individual siRNAs	active
HCFC1	1	longer clock period; seen with two independent siRNA pairs for the gene	phenotype reproduced by individual siRNAs	active
HCFC1	2	longer clock period; seen with two independent siRNA pairs for the gene	phenotype reproduced by individual siRNAs	active
